Experimental data as given in the supplement of paper PMC12823440, “Inhibitors supercharge kinase turnover through native proteolytic circuits” (Nature, 2025).
Counter-ions that a name gives are not always drawn. The list shows a part of the results. The calls rarely recur for the same compound in another form.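 Kinases were expressed as nanoluciferase fusions in K562 cells and luminescence was read every 4 h between 2 and 18 h as percent of control, DMSO set to 100% and a positive control to 0%. A time point counts as decreased when the signal drops significantly (2 sigma). The hit call is the authors' own, does not follow from the count of time points alone, and its rule is not shown.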

Protein sequences, listed by entry. Tags and fused reporters are not part of them. Lines headed by an entry give the natural chain unless they say otherwise; changes in a name come on top.
UniProt P50613: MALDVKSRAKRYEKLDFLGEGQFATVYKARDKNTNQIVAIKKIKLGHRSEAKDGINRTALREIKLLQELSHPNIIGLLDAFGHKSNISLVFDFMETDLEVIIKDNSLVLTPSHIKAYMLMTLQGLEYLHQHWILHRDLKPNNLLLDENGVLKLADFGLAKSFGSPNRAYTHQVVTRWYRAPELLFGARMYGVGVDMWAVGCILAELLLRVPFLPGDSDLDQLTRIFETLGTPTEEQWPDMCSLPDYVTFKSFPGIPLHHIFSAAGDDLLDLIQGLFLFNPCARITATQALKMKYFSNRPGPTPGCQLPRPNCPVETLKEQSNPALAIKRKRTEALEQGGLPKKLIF
UniProt P50750, whole entry: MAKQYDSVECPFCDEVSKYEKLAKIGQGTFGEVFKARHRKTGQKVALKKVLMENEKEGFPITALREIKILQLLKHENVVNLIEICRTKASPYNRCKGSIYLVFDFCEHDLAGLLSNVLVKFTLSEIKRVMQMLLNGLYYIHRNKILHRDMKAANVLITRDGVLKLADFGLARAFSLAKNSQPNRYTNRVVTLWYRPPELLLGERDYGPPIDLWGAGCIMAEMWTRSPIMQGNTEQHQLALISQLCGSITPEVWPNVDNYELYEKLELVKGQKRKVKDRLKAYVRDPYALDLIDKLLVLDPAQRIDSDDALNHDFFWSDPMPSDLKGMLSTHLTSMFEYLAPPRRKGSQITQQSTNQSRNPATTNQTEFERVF

Target: CDK7 (UniProt P50613)
Assay: kinase-Nluc reporter destabilization hit call (1 = scored as downregulated) (binary); higher = compound decreases kinase abundance
Settings: 10 µM; K562; 2-18 h

kinase-Nluc reporter destabilization hit call, inactive:
OCCn1cc(-c2cnc3nnn(Cc4ccc5ncccc5c4)c3n2)cn1 0
CCN(CC)CC(=O)Nc1c(C)cccc1C [Lidocaine] 0
CCS(=O)(=O)N1CCN(c2ccc(Nc3ncc(C(N)=O)c(NC4CC4)n3)cc2)CC1 [Cerdulatinib] 0
C#Cc1cccc(Nc2ncnc3cc(OCCOC)c(OCCOC)cc23)c1 [Erlotinib (Hydrochloride)] 0
O=C(c1ccc(F)c(F)c1Nc1ccc(I)cc1F)N1CC(O)([C@@H]2CCCCN2)C1 [Cobimetinib] 0
CC(C)(C)n1nc(-c2cccc3ccccc23)c2c(N)ncnc21 [1-Naphthyl PP1 (hydrochloride)] 0
CC(=O)c1c(C)c2cnc(Nc3ccc(N4CCNCC4)cn3)nc2n(C2CCCC2)c1=O [Palbociclib (isethionate)] 0

Ordered by length of the SMILES (high to low): three of the compounds above.
kinase-Nluc reporter destabilization hit call, inactive:
CC(=O)c1c(C)c2cnc(Nc3ccc(N4CCNCC4)cn3)nc2n(C2CCCC2)c1=O [Palbociclib (isethionate)] 0
OCCn1cc(-c2cnc3nnn(Cc4ccc5ncccc5c4)c3n2)cn1 0
CCN(CC)CC(=O)Nc1c(C)cccc1C [Lidocaine] 0

Target: CDK9 (UniProt P50750)
Assay: as above
Settings: 2 µM; K562; 2-18 h

kinase-Nluc reporter destabilization hit call, inactive:
CCc1nc(C(N)=O)c(Nc2ccc(N3CCC(N4CCN(C)CC4)CC3)c(OC)c2)nc1NC1CCOCC1 [Gilteritinib] 0
CCc1nc(C(N)=O)c(Nc2ccc(N3CCC(N4CCN(C)CC4)CC3)c(OC)c2)nc1NC1CCOCC1 [Gilteritinib hemifumarate] 0
Cc1[nH]c(/C=C2\C(=O)Nc3ccc(F)cc32)c(C)c1C(=O)NCCN1CCCC1 [Toceranib (phosphate)] 0
Cc1[nH]c(/C=C2\C(=O)Nc3ccc(F)cc32)c(C)c1C(=O)NCCN1CCCC1 [Toceranib] 0

Same assay, conditions: 2.5 µM; K562; 2-18 h

kinase-Nluc reporter destabilization hit call, inactive:
C=CC(=O)Nc1cc(Nc2nccc(-c3cn(C)c4ccccc34)n2)c(OC)cc1N(C)CCN(C)C [Osimertinib mesylate] 0
c1cc(-c2cnn3cc(-c4ccc(OCCN5CCCCC5)cc4)cnc23)ccn1 [Dorsomorphin] 0
CN(C)C/C=C/C(=O)Nc1cc2c(Nc3ccc(F)c(Cl)c3)ncnc2cc1O[C@H]1CCOC1 [Afatinib (dimaleate)] 0
C=CC(=O)Nc1cc(Nc2nccc(-c3cn(C)c4ccccc34)n2)c(OC)cc1N(C)CCN(C)C [Osimertinib] 0
CN(C)C(=O)c1cc2cnc(Nc3ccc(N4CCNCC4)cn3)nc2n1C1CCCC1 [Ribociclib hydrochloride] 0
COc1ccc(S(=O)(=O)Nc2ccccc2CN(C)C/C=C/c2ccc(Cl)cc2)cc1 [KN-92 (hydrochloride)] 0
COc1ccc(S(=O)(=O)Nc2ccccc2CN(C)C/C=C/c2ccc(Cl)cc2)cc1 [KN-92 (phosphate)] 0
